These are yes or no findings as the source states them, for the method shown. Binding seen in cells or lysates may run through a third protein. Some entries that bind do so weakly or less than the wild type.
Columns and labels:
[1] = biological target: Snf2h protein (encoded by Smarca5) (mouse (endogenous in cerebellum)) (UniProt Q91ZW3); test: co-IP; Smarca1 cKO mouse cerebellar extracts (Snf2l protein absent); IP with Snf2h antibody (Abcam ab72499) or rabbit IgG, overnight at 4 °C, Protein A/G magnetic beads; lysis buffer 20 mM Tris-HCl pH 8, 137 mM NaCl, 1% NP-40, 2 mM EDTA; washes in PBS with 0.3% triton-X; immunoblot for Cecr2
[2] = biological target: Snf2h protein (encoded by Smarca5) (mouse (endogenous in cerebellum)) (UniProt Q91ZW3); test: condition: only in WT cerebellar extracts, where Snf2l protein is present; co-IP; WT mouse cerebellar extracts (Snf2l protein present); IP with Snf2h antibody (Abcam ab72499) or rabbit IgG, overnight at 4 °C, Protein A/G magnetic beads; lysis buffer 20 mM Tris-HCl pH 8, 137 mM NaCl, 1% NP-40, 2 mM EDTA; washes in PBS with 0.3% triton-X; immunoblot for Cecr2

By UniProt entry, the sequences of proteins in these tests, tags left out.
UniProt Q91ZW3: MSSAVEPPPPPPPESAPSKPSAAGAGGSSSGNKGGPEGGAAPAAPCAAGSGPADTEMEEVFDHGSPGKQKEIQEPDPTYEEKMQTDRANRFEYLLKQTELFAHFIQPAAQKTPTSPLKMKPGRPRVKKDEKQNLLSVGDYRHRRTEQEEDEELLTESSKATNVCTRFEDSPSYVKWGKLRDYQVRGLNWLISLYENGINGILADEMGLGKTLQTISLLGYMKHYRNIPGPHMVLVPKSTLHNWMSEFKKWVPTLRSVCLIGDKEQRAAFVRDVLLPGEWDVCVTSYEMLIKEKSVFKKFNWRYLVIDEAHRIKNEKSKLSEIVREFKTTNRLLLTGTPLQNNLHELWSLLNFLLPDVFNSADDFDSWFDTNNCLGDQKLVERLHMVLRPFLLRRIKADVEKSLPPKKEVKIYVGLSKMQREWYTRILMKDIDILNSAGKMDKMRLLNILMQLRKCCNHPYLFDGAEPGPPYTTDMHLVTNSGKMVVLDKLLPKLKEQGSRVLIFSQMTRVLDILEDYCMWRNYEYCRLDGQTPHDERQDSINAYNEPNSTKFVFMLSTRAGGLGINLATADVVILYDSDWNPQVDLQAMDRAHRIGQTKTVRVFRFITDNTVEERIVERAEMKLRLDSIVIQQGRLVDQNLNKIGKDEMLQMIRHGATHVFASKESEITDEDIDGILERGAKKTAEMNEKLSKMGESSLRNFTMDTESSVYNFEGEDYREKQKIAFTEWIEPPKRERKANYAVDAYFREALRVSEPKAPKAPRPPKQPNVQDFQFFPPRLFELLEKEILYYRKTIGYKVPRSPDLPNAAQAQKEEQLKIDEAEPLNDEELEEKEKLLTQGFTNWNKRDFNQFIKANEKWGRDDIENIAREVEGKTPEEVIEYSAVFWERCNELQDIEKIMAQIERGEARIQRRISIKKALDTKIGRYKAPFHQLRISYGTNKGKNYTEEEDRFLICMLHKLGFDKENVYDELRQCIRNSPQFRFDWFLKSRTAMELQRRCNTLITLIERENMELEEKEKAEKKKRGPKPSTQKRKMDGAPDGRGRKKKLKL
UniProt E9Q2Z1: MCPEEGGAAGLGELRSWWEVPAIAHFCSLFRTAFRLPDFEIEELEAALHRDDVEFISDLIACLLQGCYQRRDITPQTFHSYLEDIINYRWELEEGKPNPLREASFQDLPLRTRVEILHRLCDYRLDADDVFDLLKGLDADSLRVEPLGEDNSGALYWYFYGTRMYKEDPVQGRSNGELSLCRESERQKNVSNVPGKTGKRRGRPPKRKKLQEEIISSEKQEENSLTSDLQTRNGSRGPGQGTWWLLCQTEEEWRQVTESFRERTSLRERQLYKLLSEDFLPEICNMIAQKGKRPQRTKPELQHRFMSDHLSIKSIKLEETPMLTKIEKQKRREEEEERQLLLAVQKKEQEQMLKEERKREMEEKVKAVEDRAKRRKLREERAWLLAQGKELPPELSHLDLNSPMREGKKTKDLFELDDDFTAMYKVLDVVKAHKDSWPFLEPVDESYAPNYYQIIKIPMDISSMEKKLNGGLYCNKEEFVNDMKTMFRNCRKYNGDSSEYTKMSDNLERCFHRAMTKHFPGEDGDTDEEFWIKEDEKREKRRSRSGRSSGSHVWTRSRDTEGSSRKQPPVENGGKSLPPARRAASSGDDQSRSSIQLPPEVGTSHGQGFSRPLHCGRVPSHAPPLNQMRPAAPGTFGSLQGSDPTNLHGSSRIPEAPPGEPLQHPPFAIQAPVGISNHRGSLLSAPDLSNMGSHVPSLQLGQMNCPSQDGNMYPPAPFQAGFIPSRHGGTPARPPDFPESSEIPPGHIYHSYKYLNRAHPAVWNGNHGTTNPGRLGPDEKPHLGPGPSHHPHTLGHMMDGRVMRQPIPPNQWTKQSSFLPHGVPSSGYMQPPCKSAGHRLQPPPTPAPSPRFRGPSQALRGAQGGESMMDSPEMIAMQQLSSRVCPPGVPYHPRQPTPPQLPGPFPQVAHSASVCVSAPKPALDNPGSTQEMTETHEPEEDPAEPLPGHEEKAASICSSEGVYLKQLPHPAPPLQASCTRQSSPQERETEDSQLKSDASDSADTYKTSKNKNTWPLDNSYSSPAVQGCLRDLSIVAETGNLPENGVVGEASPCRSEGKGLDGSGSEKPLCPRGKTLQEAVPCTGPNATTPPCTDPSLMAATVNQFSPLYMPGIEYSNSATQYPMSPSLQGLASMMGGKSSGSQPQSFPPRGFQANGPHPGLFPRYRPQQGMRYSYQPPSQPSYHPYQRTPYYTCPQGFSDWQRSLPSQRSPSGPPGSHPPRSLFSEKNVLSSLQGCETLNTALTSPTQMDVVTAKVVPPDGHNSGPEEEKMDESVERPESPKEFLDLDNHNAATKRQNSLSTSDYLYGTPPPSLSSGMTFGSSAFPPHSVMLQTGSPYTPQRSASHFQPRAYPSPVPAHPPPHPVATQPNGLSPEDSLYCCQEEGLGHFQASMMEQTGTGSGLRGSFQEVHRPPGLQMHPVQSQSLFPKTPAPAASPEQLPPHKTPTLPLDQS

- binding [1]: binds
- binding [2]: no binding
Substance: Cecr2 protein (from UniProt E9Q2Z1 1-1453)
